Measurements from doi:10.1101/2023.01.30.525655.
No constants are given. Whether binding was seen depends on the method and setting. Tags and fused reporters may be left off the sequences shown.

Amino acid sequences for entries named in this document (tags omitted). Residues count along the entry.
UniProt P02769, residues 25-607: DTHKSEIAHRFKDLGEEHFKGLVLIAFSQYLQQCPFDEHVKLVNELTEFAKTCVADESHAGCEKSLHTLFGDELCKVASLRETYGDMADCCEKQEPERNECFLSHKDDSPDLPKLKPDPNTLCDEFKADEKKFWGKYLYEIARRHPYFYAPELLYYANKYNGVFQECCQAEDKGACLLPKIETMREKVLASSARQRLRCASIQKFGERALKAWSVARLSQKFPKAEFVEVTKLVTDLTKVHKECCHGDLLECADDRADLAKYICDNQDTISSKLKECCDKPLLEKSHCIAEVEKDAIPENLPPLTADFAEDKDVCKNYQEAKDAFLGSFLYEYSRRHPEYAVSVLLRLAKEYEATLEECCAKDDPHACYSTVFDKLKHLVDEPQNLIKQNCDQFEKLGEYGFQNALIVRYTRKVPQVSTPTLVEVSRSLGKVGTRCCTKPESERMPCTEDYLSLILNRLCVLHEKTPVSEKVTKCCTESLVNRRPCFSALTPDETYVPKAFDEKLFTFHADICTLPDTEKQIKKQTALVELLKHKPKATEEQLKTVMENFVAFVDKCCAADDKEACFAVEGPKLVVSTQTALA

Biological target: T1, RED-NHS-MIF-6xHis (human MIF-6xHis labelled with the RED-NHS dye) (human) (UniProt P14174)
T1 sequence (chain, RED-NHS dye (chemically labeled)): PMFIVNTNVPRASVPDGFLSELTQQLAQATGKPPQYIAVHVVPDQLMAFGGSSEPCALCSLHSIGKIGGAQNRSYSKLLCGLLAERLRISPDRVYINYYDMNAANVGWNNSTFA
Test: MST

- binding: no binding
Substance: bovine serum albumin (BSA) (from UniProt P02769 25-607)
